In this test the target is T1, ECT2^WT-mCherry (Arabidopsis thaliana) (UniProt Q9LJE5).
T1 sequence: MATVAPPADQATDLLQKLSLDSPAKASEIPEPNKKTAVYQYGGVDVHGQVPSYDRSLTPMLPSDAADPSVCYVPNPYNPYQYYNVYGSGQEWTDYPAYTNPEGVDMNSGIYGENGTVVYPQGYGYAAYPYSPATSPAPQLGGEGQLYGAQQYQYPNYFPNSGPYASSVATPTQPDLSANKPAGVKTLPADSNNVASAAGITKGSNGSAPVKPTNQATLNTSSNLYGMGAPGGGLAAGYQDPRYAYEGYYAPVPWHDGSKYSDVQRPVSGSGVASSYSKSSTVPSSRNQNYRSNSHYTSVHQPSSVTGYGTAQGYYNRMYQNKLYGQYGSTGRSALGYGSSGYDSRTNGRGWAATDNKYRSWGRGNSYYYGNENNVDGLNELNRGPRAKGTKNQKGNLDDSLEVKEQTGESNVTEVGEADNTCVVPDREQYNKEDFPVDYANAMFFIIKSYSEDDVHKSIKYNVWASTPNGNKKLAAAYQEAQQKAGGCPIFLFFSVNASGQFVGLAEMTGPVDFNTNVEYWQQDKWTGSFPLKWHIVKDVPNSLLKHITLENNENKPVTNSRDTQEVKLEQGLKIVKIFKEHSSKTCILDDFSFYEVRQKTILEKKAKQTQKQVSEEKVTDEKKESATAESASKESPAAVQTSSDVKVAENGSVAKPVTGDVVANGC
Nature of the test: co-IP.

For one substance, binding results are on record in paper doi:10.1101/2024.06.06.597704.

No constants are given. Whether binding was seen depends on the method and setting. In cells and extracts the contact can be indirect. Binding calls can cover weak binding; strength is not graded here.

As to ALBA1, the binding entry is on record as “binds”.
